Source: publication PMC12557607
No constants are given. Whether binding was seen depends on the method and setting. In cells and extracts the contact can be indirect. Some results given as binding are weak or reduced against the parent protein; the word gives no strength.

Tests used:
FAM136A-HA (human) [1] = target: FAM136A-HA (human) (UniProt Q96C01); assay: co-IP; FAM136A-HA precipitated with anti-HA agarose from HEK293 cells after NEM; denaturing lysis (30 mM Tris pH 8.1, 100 mM NaCl, 5 mM EDTA, SDS, then Triton X-100); blot for MIA40
FAM136A-HA (human) [2] = target: FAM136A-HA (human) (UniProt Q96C01); assay: co-IP; FAM136A-HA precipitated with anti-HA agarose from HEK293 cells after NEM (20 mM); native lysis (100 mM Na-Pi pH 8.1, 100 mM NaCl, 1 % Triton X-100); blot for MIA40; also after 4 h cycloheximide (100 ug/ml)

B1: MIA40 (enzyme, UniProt Q8N4Q1 1-142)
chain: MSYCRQEGKDRIIFVTKEDHETPSSAELVADDPNDPYEEHGLILPNGNINWNCPCLGGMASGPCGEQFKSAFSCFHYSTEEIKGSDCVDQFRAMQECMQKYPDLYPQEDEDEEEEREKKPAEQAEETAPIEATATKEEEGSS
binding (FAM136A-HA (human) [1]): binds
binding (FAM136A-HA (human) [2]): binds
